The list shows only some results of the screen, not a fair sample: it gathers tests that were run many times, whatever their T/C, doses with no T/C, and many T/C values between a quarter and a half above the control. Further doses and runs are listed elsewhere. T/C is the treated group as % of the vehicle group. Some doses have a count of surviving animals in place of a T/C: the source files T/C as zero there, which appears to mark a toxic dose or a test without result, not a measured value. Some survivor counts are full or nearly so, which does not show that the dose was tolerated: survival well below the control is almost never listed, so the zero probably covers shortened survival too. Survivors were counted at the toxicity check, usually on the fifth day, unless a day is given; later deaths do not show. Schedules are NCI's codes, taken here to give the interval after Q, in days (D) or hours (H), and the number of doses after X. Some schedule codes hold Z or #, which are not explained here. Some entries were tested several times; the results are listed from low to high. For survival time, this PubChem deposit counts one and a half times the control or more as active, and values a quarter to a half above the control carry no call in these data; other NCI protocols may use other cut-offs.
Test system: L1210 leukemia ip in BDF1 mice, survival T/C
Assay: NCI In Vivo Anticancer Drug Screen. Data for tumor model L1210 Leukemia (intraperitoneal) in B6D2F1 (BDF1) mice
Details: T/C endpoint: mean survival time, higher T/C = longer survival
[1] = dose: 200.0 mg/kg/injection, schedule: Q04DX003 (ip), vehicle: saline with Tween-80
[2] = dose: 100.0 mg/kg/injection, schedule: Q01DX009 (ip), vehicle: saline with Tween-80
[3] = dose: 400.0 mg/kg/injection, schedule: Q04DX003 (ip), vehicle: saline with Tween-80

C#CC(=O)OCC#CCOC(=O)C#C
survivor count (dose: 12.5 mg/kg/injection, schedule: Q01DX009 (ip), vehicle: saline with Tween-80): 5 of 6 | survivor count (dose: 25.0 mg/kg/injection, schedule: Q01DX009 (ip), vehicle: saline with Tween-80): 0 of 6 | survivor count (dose: 25.0 mg/kg/injection, schedule: Q04DX002 (ip), vehicle: saline with Tween-80): 1 of 3 | survivor count (dose: 50.0 mg/kg/injection, schedule: Q04DX002 (ip), vehicle: saline with Tween-80): 1 of 3 | survivor count (dose: 100.0 mg/kg/injection, schedule: Q04DX002 (ip), vehicle: saline with Tween-80): 0 of 3 and 1 of 3 | survivor count (dose: 200.0 mg/kg/injection, schedule: Q04DX002 (ip), vehicle: saline with Tween-80): 0 of 3 | survivor count (dose: 400.0 mg/kg/injection, schedule: Q04DX002 (ip), vehicle: saline with Tween-80): 0 of 3

Cc1cc(Cl)c(C)c(C(=O)O)c1Cl
survivor count (dose: 400.0 mg/kg/injection, schedule: Q01DX001 (ip), vehicle: saline): 1 of 6

CSc1ncc(Br)c(Sc2nc(N)nc3nc[nH]c23)n1
T/C (dose: 1.5 mg/kg/injection, schedule: Q01DX Z (ip), vehicle: carboxymethylcellulose (CMC)): 125 % of control | T/C (dose: 4.0 mg/kg/injection, schedule: Q01DX Z (ip), vehicle: other): 126 and 132 % of control | T/C (dose: 5.2 mg/kg/injection, schedule: Q01DX001 (ip), vehicle: saline): 139 % of control | T/C (dose: 6.0 mg/kg/injection, schedule: Q01DX Z (ip), vehicle: carboxymethylcellulose (CMC)): 140 and 147 % of control | T/C (dose: 7.9 mg/kg/injection, schedule: Q01DX001 (ip), vehicle: saline): 139 % of control | T/C (dose: 8.0 mg/kg/injection, schedule: Q01DX Z (ip), vehicle: other): 148 % of control | T/C (dose: 12.0 mg/kg/injection, schedule: Q01DX Z (ip), vehicle: carboxymethylcellulose (CMC)): 144 % of control | T/C (dose: 12.0 mg/kg/injection, schedule: Q01DX Z (ip), vehicle: methylcellulose (MC)): 144 % of control | T/C (dose: 15.0 mg/kg/injection, schedule: Q01DX Z (ip), vehicle: carboxymethylcellulose (CMC)): 142 % of control | T/C (dose: 16.0 mg/kg/injection, schedule: Q01DX Z (ip), vehicle: other): 134 and 148 % of control | T/C (dose: 20.0 mg/kg/injection, schedule: Q01DX001 (ip), vehicle: saline with Tween-80): 136 % of control | T/C (dose: 22.0 mg/kg/injection, schedule: Q01DX001 (ip), vehicle: carboxymethylcellulose (CMC)): 133 % of control | T/C (dose: 22.5 mg/kg/injection, schedule: Q01DX Z (ip), vehicle: carboxymethylcellulose (CMC)): 128 % of control | T/C (dose: 24.0 mg/kg/injection, schedule: Q01DX Z (ip), vehicle: carboxymethylcellulose (CMC)): 131 % of control | T/C (dose: 32.0 mg/kg/injection, schedule: Q01DX Z (ip), vehicle: other): 138 % of control | T/C (dose: 33.0 mg/kg/injection, schedule: Q01DX001 (ip), vehicle: carboxymethylcellulose (CMC)): 133 % of control | T/C (dose: 50.0 mg/kg/injection, schedule: Q01DX001 (ip), vehicle: carboxymethylcellulose (CMC)): 135 % of control | survivor count (dose: 64.0 mg/kg/injection, schedule: Q01DX Z (ip), vehicle: other): 6 of 6 | T/C (dose: 66.0 mg/kg/injection, schedule: Q01DX001 (ip), vehicle: saline with Tween-80): 147 % of control | T/C (dose: 75.0 mg/kg/injection, schedule: Q01DX001 (ip), vehicle: carboxymethylcellulose (CMC)): 138 % of control | survivor count (dose: 79.0 mg/kg/injection, schedule: Q01DX Z (ip), vehicle: carboxymethylcellulose (CMC)): 6 of 6 | T/C (dose: 100.0 mg/kg/injection, schedule: Q01DX001 (ip), vehicle: carboxymethylcellulose (CMC)): 142 % of control | T/C (dose: 100.0 mg/kg/injection, schedule: Q01DX001 (ip), vehicle: saline): 131 and 139 % of control | survivor count (dose: 118.5 mg/kg/injection, schedule: Q01DX Z (ip), vehicle: carboxymethylcellulose (CMC)): 6 of 6 | survivor count (dose: 128.0 mg/kg/injection, schedule: Q01DX Z (ip), vehicle: other): 6 of 6 | survivor count (dose: 178.0 mg/kg/injection, schedule: Q01DX Z (ip), vehicle: carboxymethylcellulose (CMC)): 6 of 6 | survivor count (dose: 200.0 mg/kg/injection, schedule: Q01DX Z (ip), vehicle: methylcellulose (MC)): 6 of 6 | survivor count (dose: 225.0 mg/kg/injection, schedule: Q01DX001 (ip), vehicle: saline): 6 of 6 | survivor count (dose: 340.0 mg/kg/injection, schedule: Q01DX001 (ip), vehicle: saline): 6 of 6

Cc1ccc2c[c]1[Hg][CH2]COS2(=O)=O
survivor count (dose: 25.0 mg/kg/injection, schedule: Q04DX002 (ip), vehicle: Klucel (hydroxypropylcellulose) (HPC)): 2 of 2 | survivor count (dose: 50.0 mg/kg/injection, schedule: Q04DX002 (ip), vehicle: Klucel (hydroxypropylcellulose) (HPC)): 3 of 3 | survivor count (dose: 100.0 mg/kg/injection, schedule: Q04DX002 (ip), vehicle: Klucel (hydroxypropylcellulose) (HPC)): 0 of 3 | survivor count (dose: 200.0 mg/kg/injection, schedule: Q04DX002 (ip), vehicle: Klucel (hydroxypropylcellulose) (HPC)): 0 of 3 | survivor count (dose: 400.0 mg/kg/injection, schedule: Q04DX002 (ip), vehicle: Klucel (hydroxypropylcellulose) (HPC)): 0 of 3

Cn1[nH]c(=O)[nH]c1=O
survivor count [1]: 6 of 6

N=C(N)c1ccc(-n2cc3cc(C(=N)N)ccc3n2)cc1
survivor count (dose: 100.0 mg/kg/injection, schedule: Q04DX003 (ip), vehicle: saline): 0 of 4 | survivor count (dose: 200.0 mg/kg/injection, schedule: Q04DX003 (ip), vehicle: saline): 0 of 4 | survivor count (dose: 400.0 mg/kg/injection, schedule: Q04DX003 (ip), vehicle: saline): 0 of 4

O=C(C[n+]1ccccc1Br)c1cccc2ccccc12
survivor count (dose: 18.75 mg/kg/injection, schedule: Q01DX001 (ip), vehicle: other): 0 of 6 | survivor count (dose: 37.5 mg/kg/injection, schedule: Q01DX001 (ip), vehicle: other): 0 of 6 | survivor count (dose: 75.0 mg/kg/injection, schedule: Q01DX001 (ip), vehicle: other): 0 of 6 | survivor count (dose: 150.0 mg/kg/injection, schedule: Q01DX001 (ip), vehicle: other): 0 of 6 | survivor count (dose: 300.0 mg/kg/injection, schedule: Q01DX001 (ip), vehicle: other): 0 of 6

CN1C2CCC1CC(=C(C#N)C(N)=O)C2
survivor count (dose: 12.5 mg/kg/injection, schedule: Q01DX009 (ip), vehicle: Klucel (hydroxypropylcellulose) (HPC)): 0 of 6 | survivor count (dose: 25.0 mg/kg/injection, schedule: Q04DX003 (ip), vehicle: Klucel (hydroxypropylcellulose) (HPC)): 6 of 6 | survivor count (dose: 50.0 mg/kg/injection, schedule: Q04DX003 (ip), vehicle: Klucel (hydroxypropylcellulose) (HPC)): 2 of 6 | survivor count (dose: 100.0 mg/kg/injection, schedule: Q04DX003 (ip), vehicle: Klucel (hydroxypropylcellulose) (HPC)): 0 of 6 | survivor count (dose: 200.0 mg/kg/injection, schedule: Q04DX003 (ip), vehicle: Klucel (hydroxypropylcellulose) (HPC)): 0 of 6 | survivor count (dose: 400.0 mg/kg/injection, schedule: Q04DX003 (ip), vehicle: Klucel (hydroxypropylcellulose) (HPC)): 0 of 6

c1ccc(C2OC3(CCCCC3)C[N+]23CCCC3)cc1 (centres undefined)
survivor count [2]: 3 of 6 | survivor count [1]: 0 of 6 | survivor count [3]: 0 of 6

CC(=O)OC1CC2(O)C(CCC3(C)C(c4ccc(=O)oc4)CCC32O)C2(C)CCC(OC3OC(CO)C(O)C(O)C3O)C=C12 (centres undefined)
survivor count (dose: 0.64 mg/kg/injection, schedule: Q01DX015 (sc), vehicle: steroid suspending solution): 0 of 6 | survivor count (dose: 1.28 mg/kg/injection, schedule: Q01DX015 (sc), vehicle: steroid suspending solution): 0 of 6 | survivor count (dose: 2.56 mg/kg/injection, schedule: Q01DX015 (sc), vehicle: steroid suspending solution): 0 of 6

COc1cc2cc[n+](C)c(Cc3ccccc3)c2cc1OC
survivor count [2]: 0 of 6 | survivor count (dose: 100.0 mg/kg/injection, schedule: Q04DX003 (ip), vehicle: saline with Tween-80): 0 of 6 | survivor count [1]: 0 of 6 | survivor count [3]: 0 of 6

CSc1ncc(C=O)c(N)n1
survivor count (dose: 400.0 mg/kg/injection, schedule: Q01DX009 (ip), vehicle: saline with Tween-80): 3 of 6

CC(C)c1cc2c(cc1O)C1(C)CCCC(C)(C(=O)O)C1CC2 (centres undefined)
survivor count (dose: 400.0 mg/kg/injection, schedule: Q01DX001 (ip), vehicle: acetone): 2 of 6

Reference: PubChem BioAssay AID248 (DTP/NCI, 2004)
